Reference: US20180135112

Columns and labels:
T5 exonuclease = target: T1, T5 exonuclease (UniProt P06229); experiment: enzyme reaction in vitro; details: purified recombinant protein, protein details: NEB, label: fluorescein/dabcyl
T1 sequence (looked up, limits assumed): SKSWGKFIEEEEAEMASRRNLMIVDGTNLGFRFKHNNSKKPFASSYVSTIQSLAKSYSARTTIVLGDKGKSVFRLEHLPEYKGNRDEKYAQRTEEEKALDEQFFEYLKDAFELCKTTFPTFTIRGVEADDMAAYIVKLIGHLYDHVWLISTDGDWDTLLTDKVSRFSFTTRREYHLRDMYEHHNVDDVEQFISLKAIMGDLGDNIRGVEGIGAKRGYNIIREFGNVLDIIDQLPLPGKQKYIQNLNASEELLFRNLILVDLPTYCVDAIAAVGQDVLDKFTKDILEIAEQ

[1] = system: DNA gyrase (Escherichia coli); experiment: activity assay; details: dabcyl-dT at position 29 and fluorescein-dT at position 55 of the FL905 insert; supercoiling of relaxed plasmid with ATP, monitored by FRET, relatively slow; inhibited by novobiocin (IC50 0.48 uM) and ciprofloxacin (IC50 […]); 4 mM MgCl2, 37 C; purified recombinant protein; protein details: New England Biolabs; label: fluorescein/dabcyl
[2] = target: T2, DNA topoisomerase I (Escherichia coli) (UniProt P06612); experiment: activity assay; details: dabcyl-dT at position 29 and fluorescein-dT at position 55 of the FL905 insert; rapid relaxation of supercoiled plasmid by large amounts of enzyme, FRET kinetics; purified recombinant protein; protein details: purified as described previously; label: fluorescein/dabcyl; variant of relaxed pAB1_FL905 plasmid
T2 sequence (looked up, limits assumed): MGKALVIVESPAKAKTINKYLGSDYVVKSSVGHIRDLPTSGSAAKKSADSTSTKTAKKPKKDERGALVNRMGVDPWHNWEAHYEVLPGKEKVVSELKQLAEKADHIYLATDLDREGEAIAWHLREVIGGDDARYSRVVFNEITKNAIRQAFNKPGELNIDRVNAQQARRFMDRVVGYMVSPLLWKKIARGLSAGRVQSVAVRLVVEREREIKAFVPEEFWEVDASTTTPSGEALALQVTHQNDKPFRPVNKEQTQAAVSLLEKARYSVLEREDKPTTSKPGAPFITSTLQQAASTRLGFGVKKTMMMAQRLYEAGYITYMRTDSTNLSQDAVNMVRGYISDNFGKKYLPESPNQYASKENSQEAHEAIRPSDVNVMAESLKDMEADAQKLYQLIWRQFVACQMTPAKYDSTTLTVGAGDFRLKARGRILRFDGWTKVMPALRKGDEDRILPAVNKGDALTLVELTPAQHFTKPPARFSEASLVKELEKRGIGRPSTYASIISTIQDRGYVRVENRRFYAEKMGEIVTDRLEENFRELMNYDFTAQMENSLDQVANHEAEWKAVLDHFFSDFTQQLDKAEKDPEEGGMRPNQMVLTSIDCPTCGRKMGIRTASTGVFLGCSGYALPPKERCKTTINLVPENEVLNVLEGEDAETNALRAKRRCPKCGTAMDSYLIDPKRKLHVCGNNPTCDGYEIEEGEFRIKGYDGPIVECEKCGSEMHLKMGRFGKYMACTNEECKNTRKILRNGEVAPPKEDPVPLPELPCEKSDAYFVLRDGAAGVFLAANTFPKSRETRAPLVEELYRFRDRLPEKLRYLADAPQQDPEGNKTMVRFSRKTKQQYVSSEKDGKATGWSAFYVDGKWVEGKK

## TCAGCCCGACAGCACGAGACGATATATATATATATATATATATATATATATATATATATATATGGGCCAACCAACCAGCCCC [FL905 single-stranded oligomer]
T5 exonuclease; dabcyl-dT at position 29 and fluorescein-dT at position 55, 5'-phosphorylated, digests ss FL905, single-stranded DNA
  activity on this sequence: active

## TCAGCCCGACAGCACGAGACGATATATATATATATATATATATATATATATATATATATATATGGGCCAACCAACCAGCCCC [relaxed pAB1_FL905 plasmid]
T5 exonuclease; dabcyl-dT at position 29 and fluorescein-dT at position 55 of the FL905 insert, does not degrade relaxed closed circular plasmid
  activity on this sequence: not active
[1]
  activity on this sequence: active

## TCAGCCCGACAGCACGAGACGATATATATATATATATATATATATATATATATATATATATATGGGCCAACCAACCAGCCCC [supercoiled pAB1_FL905 plasmid]
T5 exonuclease; dabcyl-dT at position 29 and fluorescein-dT at position 55 of the FL905 insert, does not degrade supercoiled plasmid, variant of relaxed pAB1_FL905 plasmid
  activity on this sequence: not active
[2]
  activity on this sequence: active

For some assays here: Negatives hold for the conditions tested. For some assays here: Protein sequences can lack the tags named with them. For some assays here: For at least one entry, the source does not settle the construct or the ends of the probe.
